Consider one compound from paper PMC11260088 (Proceedings of the National Academy of Sciences of the …, 2024).

Common to all, as to assay: MIC, broth microdilution
A general note: Broth dilution looks for growth in wells or tubes with falling amounts of substance.

In one test the test system is B. subtilis 168. The test is classed as cell-based. The conditions noted are these: LB + 0.3 mM ZnSO4, 37 °C, 18 h, median of min. triplicates.
The subject of another test is S. pneumoniae 153. The test is classed as cell-based. The conditions noted are these: footnote: LB + 0.3 mM ZnSO4, method: TSB + 0.3 M ZnSO4 + 5% lysed horse blood, 37 °C, 5% CO2, 24 h. The essentials: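 Colonies from fresh blood agar were suspended directly in ZnSO4-supplemented TSB to OD600 0.5, then diluted to 10^6 CFU/mL in the same broth with 5% lysed horse blood. Compound two-fold dilutions were made in that medium. Incubation ran 24 h at 37 °C under 5% CO2 with shaking. MIC was read visually as the median of at least triplicates.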

Another test relates to S. aureus USA300 (MRSA). It counts as cell-based, Staphylococcus aureus. The conditions noted are these: LB + 0.3 mM ZnSO4, 37 °C, 18 h, median of min. triplicates.

Consider `CN[C@H](CC(C)C)C(=O)N[C@H]1C(=O)N[C@@H](CC(N)=O)C(=O)N[C@H]2C(=O)N[C@H]3C(=O)N[C@H](C(=O)N[C@H](C(=O)O)c4cc(O)cc(O)c4-c4cc3ccc4O)[C@H](O)c3ccc(c(Cl)c3)Oc3cc2cc(c3O[C@@H]2O[C@H](CO)[C@@H](O)[C@H](O)[C@H]2O[C@H]2C[C@](C)(N)[C@H](O)[C@H](C)O2)Oc2ccc(cc2Cl)[C@H]1O` [Vancomycin], for which the “MIC B. subtilis 168” value in the test on B. subtilis 168 was determined as 0.25 µg/mL. In the test on S. pneumoniae 153, the “MIC S. pneumoniae 153” value stood at 0.5 µg/mL. For the same compound, the “MIC S. aureus USA300 (MRSA)” value in the test with S. aureus USA300 (MRSA) was 2 µg/mL.
